These are yes or no findings as the source states them, for the method shown. In cells and extracts the contact can be indirect. Some results given as binding are weak or reduced against the parent protein; the word gives no strength.
Target: endogenous RPA1 (mouse brain) (mouse) (UniProt Q8VEE4)
Experiment: co-immunoprecipitation from mouse brain homogenate (anti-RPA1 H-7 or anti-Atxn1 11NQ), Western blot

By UniProt entry, the sequences of proteins in these tests, tags left out.
UniProt Q8VEE4: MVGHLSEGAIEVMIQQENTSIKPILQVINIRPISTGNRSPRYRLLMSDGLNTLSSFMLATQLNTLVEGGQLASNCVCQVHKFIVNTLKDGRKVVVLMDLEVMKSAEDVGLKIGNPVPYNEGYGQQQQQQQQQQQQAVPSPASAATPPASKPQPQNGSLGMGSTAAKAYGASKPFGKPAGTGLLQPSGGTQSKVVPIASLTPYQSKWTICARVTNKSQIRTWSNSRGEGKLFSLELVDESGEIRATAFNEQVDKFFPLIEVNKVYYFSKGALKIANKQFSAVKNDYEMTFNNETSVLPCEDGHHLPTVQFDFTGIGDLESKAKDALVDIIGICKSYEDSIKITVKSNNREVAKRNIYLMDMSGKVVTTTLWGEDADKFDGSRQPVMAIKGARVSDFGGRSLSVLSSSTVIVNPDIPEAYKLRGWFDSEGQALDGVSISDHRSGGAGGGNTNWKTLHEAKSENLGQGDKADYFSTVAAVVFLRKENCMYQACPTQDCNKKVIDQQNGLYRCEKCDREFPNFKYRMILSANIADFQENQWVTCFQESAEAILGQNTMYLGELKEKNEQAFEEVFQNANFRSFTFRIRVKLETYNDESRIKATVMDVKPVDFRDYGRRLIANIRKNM

binding: binds
B1: wild-type ATXN1 (mouse brain, non-transgenic littermate) (protein, UniProt P54254 1-791, looked up)
chain: MKSNQERSNECLPPKKREIPATSRPSEEKATALPSDNHCVEGVAWLPSTPGIRGHGGGRHGSAGTSGEHGLQGMGLHKALSAGLDYSPPSAPRSVPTANTLPTVYPPPQSGTPVSPVQYAHLSHTFQFIGSSQYSGPYAGFIPSQLISPSGNPVTSAVASAAGATTPSQRSQLEAYSTLLANMGSLSQAPGHKVEPPPQQHLSRAAGLVNPGSPPPPTQQNQYIHISSSPQSSGRATSPPPIPVHLHPHQTMIPHTLTLGPSSQVVVQYSDAGGHFVPRESTKKAESSRLQQAMQAKEVLNGEMEKSRRYGASSSVELSLGKASSKSVPHPYESRHVVVHPSPADYSSRDTSGVRGSVMVLPNSSTPSADLEAQQTTHREASPSTLNDKSGLHLGKPGHRSYALSPHTVIQTTHSASEPLPVGLPATAFYAGTQPPVIGYLSGQQQAITYAGGLPQHLVIPGNQPLLIPVGSPDMDTPGAASAIVTSSPQFAAVPHTFVTTALPKSENFNPEALVTQAAYPAMVQAQIHLPVVQSVASPTTASPTLPPYFMKGSIIQLANGELKKVEDLKTEDFIQSAEISNDLKIDSSTVERIEESHSPGVAVIQFAVGEHRAQVSVEVLVEYPFFVFGQGWSSCCPERTSQLFDLPCSKLSVGDVCISLTLKNLKNGSVKKGQPVDPASVLLKQAKTDSLAGSRHRYAEQENGINQGSAQVLSENGELKFPEKIGLPAAPFLSKIEPSKPTATRKRRWSAPETRKLEKSEDEPPLTLPKPSLIPQEVKICIEGRSNVGK

— US10989719B2, “Methods for treating spinocerebellar ataxia type I using RPA1” (National University Corporation Tokyo Medical and Dental …, priority 2013, dated 2021)
